{"source": "paper PMC4402546", "target": "T1, ORRM2 (organelle RRM protein 2), mature coding sequence (Arabidopsis) (UniProt Q9FIU6)", "T1 sequence": "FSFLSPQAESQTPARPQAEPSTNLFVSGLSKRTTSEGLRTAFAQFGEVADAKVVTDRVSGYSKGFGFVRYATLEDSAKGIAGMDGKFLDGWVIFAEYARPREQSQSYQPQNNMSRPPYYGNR", "assay": "two-hybrid; yeast strain PJ69-4 a and alpha, double transformants by mating; spotted at 1 x 10^6 and 1 x 10^5 cells/ml on media without leucine, tryptophan, adenine and histidine; empty vectors as control for auto-activation; read 2 d to 10 d after spotting", "note": "No constants are given. Whether binding was seen depends on the method and setting.", "data": [{"substance": "MEF1", "values": [{"measurement": "binding", "value": "no binding"}]}]}
